Assay results: article PMC6326804, “Structural insights into a unique preference for 3′ terminal guanine of mirtron in Drosophila TUTase tailor” (Nucleic Acids Research, 2018)

Chains of the proteins cited; added tags and fusions are not shown. Residues count along the entry.
UniProt Q9VI58, 202-560 R295K: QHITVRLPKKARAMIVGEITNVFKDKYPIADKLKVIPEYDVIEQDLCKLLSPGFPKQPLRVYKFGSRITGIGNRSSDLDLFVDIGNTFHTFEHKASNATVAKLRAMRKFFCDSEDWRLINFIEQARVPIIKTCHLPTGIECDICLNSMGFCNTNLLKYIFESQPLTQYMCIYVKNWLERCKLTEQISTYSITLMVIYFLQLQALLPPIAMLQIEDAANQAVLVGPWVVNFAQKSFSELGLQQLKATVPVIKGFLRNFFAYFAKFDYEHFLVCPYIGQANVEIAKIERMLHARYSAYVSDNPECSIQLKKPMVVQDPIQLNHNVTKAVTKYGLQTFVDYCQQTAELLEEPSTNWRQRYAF
UniProt Q9VI58, 202-560 R327A: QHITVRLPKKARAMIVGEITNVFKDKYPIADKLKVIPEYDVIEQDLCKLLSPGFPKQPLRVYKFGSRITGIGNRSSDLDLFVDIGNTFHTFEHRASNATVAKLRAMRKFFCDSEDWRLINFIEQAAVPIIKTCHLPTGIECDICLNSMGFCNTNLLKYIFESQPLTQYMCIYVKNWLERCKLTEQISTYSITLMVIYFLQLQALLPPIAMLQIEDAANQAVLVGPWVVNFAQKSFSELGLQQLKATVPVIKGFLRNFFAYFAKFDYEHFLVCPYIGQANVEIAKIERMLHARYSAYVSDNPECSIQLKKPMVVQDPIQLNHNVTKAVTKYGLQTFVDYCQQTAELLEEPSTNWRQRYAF
UniProt Q9VI58, 202-560 N347A: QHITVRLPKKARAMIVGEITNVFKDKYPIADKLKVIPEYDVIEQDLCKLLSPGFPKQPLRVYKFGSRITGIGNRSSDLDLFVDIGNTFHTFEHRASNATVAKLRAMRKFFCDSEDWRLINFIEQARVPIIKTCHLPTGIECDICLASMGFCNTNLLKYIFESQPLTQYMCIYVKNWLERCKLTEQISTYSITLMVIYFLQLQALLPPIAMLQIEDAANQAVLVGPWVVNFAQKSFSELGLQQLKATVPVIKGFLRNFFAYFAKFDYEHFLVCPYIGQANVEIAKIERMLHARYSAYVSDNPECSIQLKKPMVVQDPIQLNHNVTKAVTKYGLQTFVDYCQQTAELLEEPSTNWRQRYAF
UniProt Q9VI58, 202-560 H294A: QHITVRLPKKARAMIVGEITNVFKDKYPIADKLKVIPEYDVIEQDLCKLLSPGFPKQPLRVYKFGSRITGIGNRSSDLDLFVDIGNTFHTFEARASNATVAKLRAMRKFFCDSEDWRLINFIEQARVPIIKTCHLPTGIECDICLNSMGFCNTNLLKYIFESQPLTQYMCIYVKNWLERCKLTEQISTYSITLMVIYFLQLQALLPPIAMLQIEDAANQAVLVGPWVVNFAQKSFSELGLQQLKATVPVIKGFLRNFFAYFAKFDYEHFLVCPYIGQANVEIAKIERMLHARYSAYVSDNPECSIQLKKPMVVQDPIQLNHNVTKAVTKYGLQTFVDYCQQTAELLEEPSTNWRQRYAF
UniProt Q9VI58, 202-560 R327K: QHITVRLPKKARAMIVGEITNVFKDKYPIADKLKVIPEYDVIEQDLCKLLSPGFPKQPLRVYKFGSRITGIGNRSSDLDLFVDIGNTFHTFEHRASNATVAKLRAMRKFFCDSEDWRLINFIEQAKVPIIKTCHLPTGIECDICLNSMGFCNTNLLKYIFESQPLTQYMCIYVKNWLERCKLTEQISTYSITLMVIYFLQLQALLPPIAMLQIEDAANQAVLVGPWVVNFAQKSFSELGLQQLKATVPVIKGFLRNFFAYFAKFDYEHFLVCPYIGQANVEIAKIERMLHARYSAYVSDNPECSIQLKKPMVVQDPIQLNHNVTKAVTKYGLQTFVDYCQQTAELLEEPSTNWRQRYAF
UniProt Q9VI58, 202-560: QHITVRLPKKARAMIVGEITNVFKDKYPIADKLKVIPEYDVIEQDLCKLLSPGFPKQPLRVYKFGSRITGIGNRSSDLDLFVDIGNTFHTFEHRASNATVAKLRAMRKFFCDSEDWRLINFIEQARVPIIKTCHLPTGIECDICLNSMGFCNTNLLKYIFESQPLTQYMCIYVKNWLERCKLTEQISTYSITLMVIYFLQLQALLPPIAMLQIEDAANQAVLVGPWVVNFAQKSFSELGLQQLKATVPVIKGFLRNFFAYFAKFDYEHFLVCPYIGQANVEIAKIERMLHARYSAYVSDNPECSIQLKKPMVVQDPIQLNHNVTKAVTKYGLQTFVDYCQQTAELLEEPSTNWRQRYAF
UniProt Q9VI58, 202-560 R295A: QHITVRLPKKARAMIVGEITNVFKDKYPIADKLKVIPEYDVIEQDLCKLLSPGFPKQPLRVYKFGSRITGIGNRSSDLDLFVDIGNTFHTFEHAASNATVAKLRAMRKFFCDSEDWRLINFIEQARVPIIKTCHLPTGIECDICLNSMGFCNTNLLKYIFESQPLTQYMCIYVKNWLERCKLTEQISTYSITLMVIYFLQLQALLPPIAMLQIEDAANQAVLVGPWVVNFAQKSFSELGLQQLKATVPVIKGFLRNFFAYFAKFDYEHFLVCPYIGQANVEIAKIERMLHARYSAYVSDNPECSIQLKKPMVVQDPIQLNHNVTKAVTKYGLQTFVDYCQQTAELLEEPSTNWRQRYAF

Assays:
Test in all cases: EMSA
Details in all cases: no Mg2+ added; EMSA: 25 mM Tris-HCl pH 7.2, 100 mM NaCl, 5 mM DTT, 500 nM Cy5-RNA, 0-2.5 uM protein, 30 min on ice; 6% native gel at 4 C; recombinant protein; residues 202-560; protein details: 8xHis-SUMO tag removed by ULP1; label: 5'-Cy5
Tailor-C R295K = Tailor-C R295K (UniProt Q9VI58)
Tailor-C R327A = Tailor-C R327A (UniProt Q9VI58)
Tailor-C N347A = Tailor-C N347A (UniProt Q9VI58)
Tailor-C H294A = Tailor-C H294A (UniProt Q9VI58)
Tailor-C R327K = Tailor-C R327K (UniProt Q9VI58)
Tailor-C = Tailor-C (UniProt Q9VI58)
Tailor-C R295A = Tailor-C R295A (UniProt Q9VI58)

CAUAUUCACAG [truncated miR-1003 (3'G)]: binds more weakly (Tailor-C R295K); binds more weakly (Tailor-C R327A); binds more weakly (Tailor-C N347A). CAUAUUCACAG [truncated miR-1003 (3'G)]: binds more weakly (Tailor-C H294A); binds more weakly (Tailor-C R327K); binds (Tailor-C). CAUAUUCACAG [truncated miR-1003 (3'G)]: binds more weakly (Tailor-C R295A).

For some of these results: A weaker result is weaker than the reference pair of the same experiment. For some of these results: Construct, isoform or probe ends are uncertain for at least one entry. For some of these results: At least one verdict was read from the data and is not stated in words by the source.
